The record followed here is the supplement of paper PMC12067093, “Discovery and optimisation of a covalent ligand for TRIM25 and its application to targeted protein ubiquitination” (Chemical Science, 2025).

Sequences of proteins named here, by UniProt entry; tags and fusion partners are left off. A change or cut given only in a name is not applied to a line headed by its entry.
UniProt Q9P0J1: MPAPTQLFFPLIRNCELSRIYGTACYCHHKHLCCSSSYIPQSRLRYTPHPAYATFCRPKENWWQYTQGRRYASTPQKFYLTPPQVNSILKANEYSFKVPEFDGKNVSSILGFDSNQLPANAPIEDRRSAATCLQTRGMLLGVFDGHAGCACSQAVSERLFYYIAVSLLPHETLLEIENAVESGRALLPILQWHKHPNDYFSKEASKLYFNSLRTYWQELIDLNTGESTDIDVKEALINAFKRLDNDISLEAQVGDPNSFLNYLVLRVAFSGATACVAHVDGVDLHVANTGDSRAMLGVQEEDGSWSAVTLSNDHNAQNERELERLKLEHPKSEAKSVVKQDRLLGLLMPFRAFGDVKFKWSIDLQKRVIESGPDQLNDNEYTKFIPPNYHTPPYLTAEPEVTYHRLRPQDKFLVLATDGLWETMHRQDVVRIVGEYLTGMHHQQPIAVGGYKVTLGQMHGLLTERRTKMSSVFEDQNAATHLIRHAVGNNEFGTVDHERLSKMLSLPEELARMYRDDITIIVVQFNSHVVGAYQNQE
UniProt Q16822, whole entry, looked up: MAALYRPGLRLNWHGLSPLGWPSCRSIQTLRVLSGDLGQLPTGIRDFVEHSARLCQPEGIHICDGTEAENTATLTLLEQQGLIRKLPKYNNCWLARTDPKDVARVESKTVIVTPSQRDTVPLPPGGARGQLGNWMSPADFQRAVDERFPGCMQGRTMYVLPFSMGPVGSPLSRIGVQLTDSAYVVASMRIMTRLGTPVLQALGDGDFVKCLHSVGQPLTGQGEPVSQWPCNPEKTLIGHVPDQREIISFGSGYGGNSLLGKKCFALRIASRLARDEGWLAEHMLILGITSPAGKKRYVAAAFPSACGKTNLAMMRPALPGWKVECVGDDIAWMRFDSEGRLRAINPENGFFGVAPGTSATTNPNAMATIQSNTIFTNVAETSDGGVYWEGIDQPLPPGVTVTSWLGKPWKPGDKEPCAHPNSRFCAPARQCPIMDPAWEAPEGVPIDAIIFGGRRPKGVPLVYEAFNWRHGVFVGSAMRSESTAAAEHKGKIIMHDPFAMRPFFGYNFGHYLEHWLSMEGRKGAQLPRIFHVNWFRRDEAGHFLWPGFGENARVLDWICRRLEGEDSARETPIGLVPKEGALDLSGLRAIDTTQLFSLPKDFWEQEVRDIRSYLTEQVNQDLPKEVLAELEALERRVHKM
UniProt Q6P996: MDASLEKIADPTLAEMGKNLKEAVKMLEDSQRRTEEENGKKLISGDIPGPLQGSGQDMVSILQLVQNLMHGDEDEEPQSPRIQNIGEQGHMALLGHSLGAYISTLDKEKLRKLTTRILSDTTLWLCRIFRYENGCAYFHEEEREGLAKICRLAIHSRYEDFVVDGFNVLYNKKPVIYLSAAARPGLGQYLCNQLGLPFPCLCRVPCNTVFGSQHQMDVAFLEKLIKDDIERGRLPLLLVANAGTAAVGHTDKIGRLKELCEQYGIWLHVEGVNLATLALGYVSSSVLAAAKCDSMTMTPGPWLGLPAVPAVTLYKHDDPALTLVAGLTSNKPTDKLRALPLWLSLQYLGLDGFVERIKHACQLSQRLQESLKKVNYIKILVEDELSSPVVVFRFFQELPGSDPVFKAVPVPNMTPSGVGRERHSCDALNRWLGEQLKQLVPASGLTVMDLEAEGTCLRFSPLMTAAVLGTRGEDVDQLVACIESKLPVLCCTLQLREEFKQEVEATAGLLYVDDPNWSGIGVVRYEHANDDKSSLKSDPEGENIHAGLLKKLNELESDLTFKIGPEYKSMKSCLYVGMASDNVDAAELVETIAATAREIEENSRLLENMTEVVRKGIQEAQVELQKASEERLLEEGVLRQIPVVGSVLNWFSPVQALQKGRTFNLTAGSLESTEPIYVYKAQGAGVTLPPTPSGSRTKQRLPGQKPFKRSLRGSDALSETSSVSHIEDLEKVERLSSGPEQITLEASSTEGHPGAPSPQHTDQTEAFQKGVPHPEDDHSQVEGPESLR
UniProt Q15366, whole entry, looked up: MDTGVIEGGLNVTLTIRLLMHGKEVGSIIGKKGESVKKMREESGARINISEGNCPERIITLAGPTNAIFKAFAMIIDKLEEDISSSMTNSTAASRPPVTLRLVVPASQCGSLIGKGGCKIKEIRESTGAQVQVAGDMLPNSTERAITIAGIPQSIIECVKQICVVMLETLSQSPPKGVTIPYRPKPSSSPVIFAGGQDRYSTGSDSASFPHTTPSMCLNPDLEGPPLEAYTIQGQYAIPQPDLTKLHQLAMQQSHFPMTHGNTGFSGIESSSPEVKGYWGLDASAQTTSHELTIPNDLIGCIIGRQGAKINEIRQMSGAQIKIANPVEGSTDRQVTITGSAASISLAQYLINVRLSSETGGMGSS
UniProt Q9BRP1: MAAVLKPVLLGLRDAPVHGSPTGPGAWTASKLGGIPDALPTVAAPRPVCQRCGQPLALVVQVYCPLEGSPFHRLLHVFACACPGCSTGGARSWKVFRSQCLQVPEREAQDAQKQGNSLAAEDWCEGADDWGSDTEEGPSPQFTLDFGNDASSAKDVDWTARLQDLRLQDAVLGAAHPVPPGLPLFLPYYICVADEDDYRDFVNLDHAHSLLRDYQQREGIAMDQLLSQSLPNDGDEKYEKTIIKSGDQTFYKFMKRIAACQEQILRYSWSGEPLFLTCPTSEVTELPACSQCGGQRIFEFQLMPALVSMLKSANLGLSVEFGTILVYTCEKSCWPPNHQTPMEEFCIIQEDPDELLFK
UniProt P50479: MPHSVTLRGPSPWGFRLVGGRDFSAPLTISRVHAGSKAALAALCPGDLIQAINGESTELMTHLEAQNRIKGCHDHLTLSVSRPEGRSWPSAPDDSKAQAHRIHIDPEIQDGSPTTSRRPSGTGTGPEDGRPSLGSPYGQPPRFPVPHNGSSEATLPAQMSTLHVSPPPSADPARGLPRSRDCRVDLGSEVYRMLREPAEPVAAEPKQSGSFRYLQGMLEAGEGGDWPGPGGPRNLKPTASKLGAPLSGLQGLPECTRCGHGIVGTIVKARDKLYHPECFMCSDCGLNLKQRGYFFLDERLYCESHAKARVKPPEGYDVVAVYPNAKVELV
UniProt Q5JVF3: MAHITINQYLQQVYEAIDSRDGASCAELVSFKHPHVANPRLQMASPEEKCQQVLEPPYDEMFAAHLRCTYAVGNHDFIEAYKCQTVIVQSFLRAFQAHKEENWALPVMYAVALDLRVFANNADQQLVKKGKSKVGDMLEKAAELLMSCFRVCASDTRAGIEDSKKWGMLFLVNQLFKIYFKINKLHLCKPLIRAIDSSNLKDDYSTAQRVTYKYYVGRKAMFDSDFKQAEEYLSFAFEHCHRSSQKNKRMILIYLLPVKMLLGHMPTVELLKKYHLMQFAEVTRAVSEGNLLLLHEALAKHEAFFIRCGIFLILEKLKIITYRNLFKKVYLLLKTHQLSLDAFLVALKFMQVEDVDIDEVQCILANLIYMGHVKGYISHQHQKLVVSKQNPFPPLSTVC
UniProt Q9HBH1: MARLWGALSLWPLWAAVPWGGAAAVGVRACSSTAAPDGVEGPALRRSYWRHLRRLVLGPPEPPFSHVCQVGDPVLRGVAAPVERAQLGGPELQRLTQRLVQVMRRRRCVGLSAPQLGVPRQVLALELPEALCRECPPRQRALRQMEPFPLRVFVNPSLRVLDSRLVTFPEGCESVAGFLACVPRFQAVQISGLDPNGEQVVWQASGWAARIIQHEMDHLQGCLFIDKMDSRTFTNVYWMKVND
UniProt Q8NCN5: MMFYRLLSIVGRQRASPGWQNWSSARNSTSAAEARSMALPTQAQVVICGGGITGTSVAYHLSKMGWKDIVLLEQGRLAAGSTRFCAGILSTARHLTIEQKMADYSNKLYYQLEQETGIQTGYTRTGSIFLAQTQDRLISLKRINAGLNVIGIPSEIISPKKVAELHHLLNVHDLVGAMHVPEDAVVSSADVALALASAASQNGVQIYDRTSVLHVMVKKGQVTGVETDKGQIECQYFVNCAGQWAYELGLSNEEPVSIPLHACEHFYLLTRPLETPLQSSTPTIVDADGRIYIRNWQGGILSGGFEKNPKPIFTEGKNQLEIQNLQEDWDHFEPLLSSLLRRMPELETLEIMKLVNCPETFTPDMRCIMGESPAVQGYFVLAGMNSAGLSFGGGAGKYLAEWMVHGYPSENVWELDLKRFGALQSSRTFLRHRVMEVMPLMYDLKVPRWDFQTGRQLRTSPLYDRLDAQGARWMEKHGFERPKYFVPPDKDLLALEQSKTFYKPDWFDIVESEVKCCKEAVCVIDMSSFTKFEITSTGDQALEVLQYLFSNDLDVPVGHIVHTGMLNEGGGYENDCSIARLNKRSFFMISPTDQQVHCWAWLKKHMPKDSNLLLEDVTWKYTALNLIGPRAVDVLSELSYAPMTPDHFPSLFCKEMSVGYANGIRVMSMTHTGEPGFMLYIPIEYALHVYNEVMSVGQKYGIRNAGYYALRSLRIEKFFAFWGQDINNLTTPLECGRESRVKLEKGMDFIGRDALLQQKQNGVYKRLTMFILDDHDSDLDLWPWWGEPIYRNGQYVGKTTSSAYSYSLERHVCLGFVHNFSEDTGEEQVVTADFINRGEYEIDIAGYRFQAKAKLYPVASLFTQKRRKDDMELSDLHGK
UniProt P05166: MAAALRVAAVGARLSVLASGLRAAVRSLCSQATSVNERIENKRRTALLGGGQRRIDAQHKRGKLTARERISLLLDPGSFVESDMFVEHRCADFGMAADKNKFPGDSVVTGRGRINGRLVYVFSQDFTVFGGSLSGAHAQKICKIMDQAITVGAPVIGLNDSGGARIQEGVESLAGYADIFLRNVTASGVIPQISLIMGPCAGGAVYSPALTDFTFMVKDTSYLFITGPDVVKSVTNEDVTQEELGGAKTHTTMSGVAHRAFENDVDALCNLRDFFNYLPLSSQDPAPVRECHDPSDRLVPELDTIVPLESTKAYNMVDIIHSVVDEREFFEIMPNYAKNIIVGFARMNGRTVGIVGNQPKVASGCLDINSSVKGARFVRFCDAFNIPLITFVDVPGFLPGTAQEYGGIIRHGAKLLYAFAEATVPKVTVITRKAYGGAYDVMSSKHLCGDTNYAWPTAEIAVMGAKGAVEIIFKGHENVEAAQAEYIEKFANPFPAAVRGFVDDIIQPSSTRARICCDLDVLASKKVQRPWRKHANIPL
UniProt Q9NR12, whole entry, looked up: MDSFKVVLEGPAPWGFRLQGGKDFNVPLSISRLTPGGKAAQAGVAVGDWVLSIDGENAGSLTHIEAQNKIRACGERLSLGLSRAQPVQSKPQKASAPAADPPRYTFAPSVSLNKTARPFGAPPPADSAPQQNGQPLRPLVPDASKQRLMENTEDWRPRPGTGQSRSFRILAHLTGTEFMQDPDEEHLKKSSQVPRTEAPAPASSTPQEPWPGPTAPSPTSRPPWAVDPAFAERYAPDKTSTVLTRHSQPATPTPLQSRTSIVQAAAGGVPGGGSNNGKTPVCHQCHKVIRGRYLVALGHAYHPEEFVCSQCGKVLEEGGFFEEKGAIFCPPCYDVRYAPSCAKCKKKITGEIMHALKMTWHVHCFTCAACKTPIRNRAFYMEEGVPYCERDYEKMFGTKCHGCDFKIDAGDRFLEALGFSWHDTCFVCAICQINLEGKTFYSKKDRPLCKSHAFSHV
UniProt P05165: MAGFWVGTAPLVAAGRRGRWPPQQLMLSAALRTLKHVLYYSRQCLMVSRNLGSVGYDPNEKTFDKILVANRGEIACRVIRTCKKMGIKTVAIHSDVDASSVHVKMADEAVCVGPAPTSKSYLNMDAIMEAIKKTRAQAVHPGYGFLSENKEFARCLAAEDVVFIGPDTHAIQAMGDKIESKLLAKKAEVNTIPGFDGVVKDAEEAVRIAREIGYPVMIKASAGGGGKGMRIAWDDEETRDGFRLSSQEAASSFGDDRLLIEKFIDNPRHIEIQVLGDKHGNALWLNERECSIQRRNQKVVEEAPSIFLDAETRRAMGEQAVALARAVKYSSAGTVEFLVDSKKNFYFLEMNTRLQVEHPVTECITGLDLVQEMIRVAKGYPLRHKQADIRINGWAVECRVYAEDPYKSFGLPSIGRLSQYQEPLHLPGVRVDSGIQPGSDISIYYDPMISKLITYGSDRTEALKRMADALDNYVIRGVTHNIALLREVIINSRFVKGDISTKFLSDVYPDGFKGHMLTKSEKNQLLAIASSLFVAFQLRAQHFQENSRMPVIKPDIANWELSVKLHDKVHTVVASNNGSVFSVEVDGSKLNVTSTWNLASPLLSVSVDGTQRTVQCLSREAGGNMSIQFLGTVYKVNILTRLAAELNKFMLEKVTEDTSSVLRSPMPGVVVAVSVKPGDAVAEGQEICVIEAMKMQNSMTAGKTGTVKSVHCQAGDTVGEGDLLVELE

Compound in the assay: CC1Cc2ccccc2N1C(=O)C1CCCN(C1)C(=O)CCl (mixture of isomers) [TRIM25 ligand 11 (diastereomer mixture)]
The experiment in a line: probe-labelled cysteine peptide fold change vs DMSO (competition) (log2 fold change); higher = less target engagement (more negative = stronger competition). The following applies: THP-1, incubation time: 4 h.

Some of the results follow.
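Note: competitive chemoproteomic profiling in live THP-1 cells with an iodoacetamide desthiobiotin (IA-DTB) probe, comparing probe-labelled peptide intensities in compound-treated cells against DMSO-treated controls.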

“PDP1_Q9P0J1_275_VAFSGATACVAHVDGVDLHVANTGDSR (UniProt Q9P0J1)”: the “probe-labelled cysteine peptide fold change” value reads like this: (10 µM) 0.157; (50 µM) 0.223.

On to “PDCD11_Q14690_535_LPVITCYADAKPGLQTHGFIIR (UniProt Q14690)”, for which the “probe-labelled cysteine peptide fold change” value by setting is: (10 µM) 0.145; (50 µM) 0.136.

In the case of “PCK2_Q16822_92_YNNCWLAR (UniProt Q16822)”, the “probe-labelled cysteine peptide fold change” value by setting is: (10 µM) -0.0883; (50 µM) -0.0335.

In the case of “PDIA6_Q15084_291+297_RTCEEHQLCVVAVLPHILDTGAAGR (UniProt Q15084)”, the “probe-labelled cysteine peptide fold change” value was -0.266 (10 µM) and -0.0759 (50 µM).

Regarding “PDXDC1_Q6P996_361_HACQLSQR (UniProt Q6P996)”, the “probe-labelled cysteine peptide fold change” value was determined as 0.0732 (10 µM) and 0.066 (50 µM).

Regarding “PCBP2_Q15366_158_AITIAGIPQSIIECVK (UniProt Q15366)”, the “probe-labelled cysteine peptide fold change” value was -0.0406 (10 µM) and 0.0228 (50 µM).

Turning to “PDCD2L_Q9BRP1_49_LGGIPDALPTVAAPRPVCQR (UniProt Q9BRP1)”, the “probe-labelled cysteine peptide fold change” value by setting is: (10 µM) -0.312; (50 µM) -0.529.

For the target “PDLIM4_P50479_258_CGHGIVGTIVK (UniProt P50479)”, the “probe-labelled cysteine peptide fold change” value by setting is: (10 µM) -0.216; (50 µM) -0.128.

“PCID2_Q5JVF3_148_AAELLMSCFR (UniProt Q5JVF3)”: the “probe-labelled cysteine peptide fold change” value worked out at 0.131 (10 µM) and 0.228 (50 µM).

As for “PDF_Q9HBH1_172+181_LVTFPEGCESVAGFLACVPR (UniProt Q9HBH1)”, the “probe-labelled cysteine peptide fold change” value came out at 0.0549 (10 µM) and 0.0225 (50 µM).

As for “PDPR_Q8NCN5_598_SFFMISPTDQQVHCWAWLK (UniProt Q8NCN5)”, the “probe-labelled cysteine peptide fold change” value is -0.233 (10 µM) and 0.132 (50 µM).

With “PCCB_P05166_269_AFENDVDALCNLR (UniProt P05166)”, the “probe-labelled cysteine peptide fold change” value reads like this: (10 µM) 0.089; (50 µM) -0.0226.

For the target “PDLIM7_Q9NR12_367+370_MTWHVHCFTCAACK (UniProt Q9NR12)”, the “probe-labelled cysteine peptide fold change” value (10 µM) was determined as 0.00151 and the “probe-labelled cysteine peptide fold change” value (50 µM) is 0.172.

With “PCCA_P05165_155_CLAAEDVVFIGPDTHAIQAMGDKIESK (UniProt P05165)”, the “probe-labelled cysteine peptide fold change” value runs as follows: (10 µM) -0.0809; (50 µM) 0.00753.
